Drawing on PubChem BioAssay AID2685 (National Center for Advancing Translational Sciences (NCATS), 2010), this text covers cell number change and AC50 for 43 compounds.

The nature of this assay: qHTS Assay for Lipid Storage Modulators in Drosophila S3 Cells.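 As to cell number change: cells counted by Cell Tracker Red CMTPX staining in the red channel.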 As to conditions: BODIPY lipid droplet fluorescence, 18-24 h; for cell number change: measured here: cell count max response, cells fed with added oleic acid. The method, boiled down: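 Drosophila S3 cells loaded with oleic acid (400 uM, as added) and compounds at several concentrations; lipid droplets imaged by 488-nm laser-scanning cytometry, 500–530 nm intensity and object ratio to cell channel. Percent activity normalized to 20 uM Triacsin C.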

Where [1] appears, read: measured here: lipid fluorescence (Fed channel) AC50, cells fed with added oleic acid.
[2] abbreviates: measured here: cell number channel AC50, cells fed with added oleic acid.

SMILES strings stand for the structures. The list shows a part of the results. Shown are side measurements of this screen, not its main read-out; they come without a call. Compounds called inactive in the main read-out are mostly missing here. Words in brackets tell the shape of the fitted curve; partial curves, single points and poor fits give uncertain potencies.

As for `O=C(COCc1cc(-c2ccc3c(c2)OCO3)on1)N1CCCCC1`, the cell number change came out at 29.7%. In addition, the concentration at half-maximal activity (AC50) under setting [1] was 6.51 µM [rising, single point].

Regarding `CCOC(=O)NN=C1c2ccccc2-c2ccccc21`, the cell number change came out at 13.7%. The AC50 under setting [1] is 29.1 µM [falling, single point].

For `COc1ccc(CC2(CO)CCN(Cc3cnn(-c4ccc(F)cc4)c3)CC2)cc1`, the cell number change turned out to be 3.12%. For the same compound, the AC50 under setting [1] is 0.0259 µM [falling, full curve, poor fit].

For the compound `CCOC(=O)c1c(C)c(C(=O)NCCOC)c(C)n1CC`, the concentration at half-maximal activity (AC50) under setting [2] was 3.66 µM [falling, single point].

Turning to `CSc1nc(N)nc(SCC(=O)OC(C)C)c1C#N`, the cell number change was -8.99%.

On to `COc1cc(/C=N/NC(=O)c2nnn(-c3nonc3N)c2C(C)C)ccc1OCc1ccc(F)cc1`, for which the cell number change amounted to 29.5%.

Regarding `COc1ccccc1NC(=O)c1ccc(S(=O)(=O)N2CCCC(C)C2)cc1` (configuration not stated), the concentration at half-maximal activity (AC50) reads like this: under setting [2], 0.116 µM [rising, full curve, poor fit]; under setting [1], 0.651 µM [falling, full curve, poor fit].

In the case of `O=C(Nc1ccccc1C(=O)NCC1CCCO1)c1ccccc1` (configuration not stated), the cell number change was -11.4%. In addition, under setting [1], the AC50 was 0.92 µM [rising, full curve, poor fit].

For the compound `Cc1ccc(NC(=O)CCCCCN2C(=O)c3ccccc3C2=O)nc1`, the cell number change amounted to 18.4%.

For `O=C(NCCCSc1ccccc1)c1cnc(Cl)c(Cl)c1`, the cell number change amounted to 1.28%.

For `Cc1csc(C(=O)NN)c1N(C)C`, the cell number change stood at 40.9%. Further, the half-maximal activity concentration (AC50) under setting [2] was 6.51 µM [rising, partial curve, poor fit].

In the case of `Cc1ccc(OCc2nnc(NC(=O)c3ccco3)s2)c(C)c1`, the cell number change is -12.4%. The concentration at half-maximal activity (AC50) under setting [1] is 0.651 µM [falling, single point].

Take `Cc1c(CCC(=O)NC2CC2)c(=O)oc2cc(O)ccc12`: the cell number change is -2.03%. Also, the AC50 under setting [1] is 0.92 µM [rising, single point].

As for `CCOc1ccccc1N(CC(=O)Nc1cc(OC)ccc1OC)S(=O)(=O)c1ccccc1`, the cell number change was determined as 26.7%.

Regarding `CC1(C)CC(NCCC(c2ccccc2)c2ccco2)CCO1` (configuration not stated), the cell number change was found to be 14%.

In the case of `COc1ccc(OC)c(-c2csc(NC(=O)COC(=O)C3CC3)n2)c1`, the cell number change was 28.1%. Moreover, the half-maximal activity concentration (AC50) under setting [1] was 29.1 µM [falling, single point].

In the case of `CC1(C)CC(=O)C(CC(=O)Nc2cc(C(F)(F)F)ccc2Cl)C(=O)C1`, the cell number change is -63.5%. Moreover, the AC50 under setting [1] was 4.61 µM [falling, single point].

Regarding `COc1ccc(OCc2cc(C(=O)NC(C)c3csc(C)n3)no2)c(Cl)c1` (configuration not stated), the cell number change is -0.494%. Under setting [1], the concentration at half-maximal activity (AC50) was 6.51 µM [rising, single point].

For the compound `COc1ccc(OCCCC(=O)Nc2nc(C)c(C(C)=O)s2)cc1`, the cell number change came to 4.42%.

Consider `CC(C)(C)NC(=O)CN1CCCN(C(=O)c2cccc(S(=O)(=O)N3CCc4ccccc43)c2)CC1`, for which the cell number change is -10.2%. Moreover, the AC50 under setting [1] is 29.1 µM [falling, single point].

In the case of `COc1ncccc1C(=O)NC1CCCc2c1cnn2-c1cc(C)cc(C)c1` (configuration not stated), the cell number change was -16.1%. The AC50 under setting [2] was 0.0651 µM [falling, full curve, poor fit]. Moreover, the AC50 under setting [1] was 29.1 µM [falling, partial curve, poor fit].

For `CCN(C1CCCCC1)S(=O)(=O)c1cn(C)c(=O)n(C)c1=O`, the AC50 under setting [1] was 6.51 µM [falling, partial curve].

Take `COc1ccc(Nc2cc(C(=O)NCCCN3CCOCC3)c3ccccc3n2)cc1OC`: the AC50 under setting [1] was 1.46 µM [rising, partial curve].

Regarding `CN(C)c1ccc(C(=O)c2ccccc2C(=O)O)cc1[N+](=O)[O-]`, the cell number change was -18.3%. For the same compound, under setting [1], the concentration at half-maximal activity (AC50) is 29.1 µM [falling, single point].

For the compound `O=C(c1ccccc1)n1c(=O)c(F)cn(COCCBr)c1=O`, the cell number change is -6.88%. The half-maximal activity concentration (AC50) under setting [1] is 13 µM [rising, partial curve].

Take `COc1cccc(C2C(C#N)=C(N)N(N(C)C)C3=C2C(=O)CC(C)(C)C3)c1OC` (configuration not stated): the cell number change came to 6.94%.

For the compound `CC1CCCCC1NC(=O)/C(C#N)=C/c1ccc(F)c(F)c1` (configuration not stated), the cell number change is -8.92%. The half-maximal activity concentration (AC50) under setting [1] was 0.206 µM [falling, full curve, poor fit].

For the compound `Cc1cccc(Nc2ncnc3ccccc23)c1`, the concentration at half-maximal activity (AC50) under setting [2] is 2.91 µM [rising, partial curve].

In the case of `Cc1ccc(NC(=O)Nc2ccc3c(c2)CCC3)c(C)c1`, the cell number change came to 23.4%.

Take `NS(=O)(=O)c1cccc2cccnc12`: the cell number change was found to be 15.2%.

As for `O=c1[nH]c(/C(Cl)=C/c2cccc(C(F)(F)F)c2)nc2cc(Cl)ccc12`, the cell number change was -17.8%. The half-maximal activity concentration (AC50) under setting [2] was 3.26 µM [falling, single point]. Moreover, the AC50 under setting [1] was 3.26 µM [falling, single point].

With `CCOC(=O)C1=C(CC)OC(N)=C(C#N)C1c1cccs1` (configuration not stated), the cell number change was 1.61%. For the same compound, the AC50 under setting [2] was 0.116 µM [falling, full curve].

Take `O=c1nc(N2CCCCC2)nc2n1CCO2`: the cell number change was -23.1%. Also, the AC50 under setting [1] was 29.1 µM [falling, single point].

`COc1cc(COc2ccc3c(C)c(Cc4ccccc4)c(=O)oc3c2)cc(OC)c1OC`: under setting [2], the AC50 is 1.84 µM [rising, partial curve].

Turning to `O=C(c1ccco1)N1CCN(C(=O)c2ccc(-c3ccccc3Cl)o2)CC1`, the cell number change was -34.2%. Moreover, the AC50 under setting [2] was 18.4 µM [falling, partial curve, poor fit].

`CCn1nnc(NC(=O)COc2ccc([N+](=O)[O-])cc2)n1`: the cell number change was 18.6%. For the same compound, the concentration at half-maximal activity (AC50) under setting [1] was 29.1 µM [rising, single point].

On to `Cc1cccnc1Nc1nc(-c2ccccn2)cs1`, for which the cell number change is -9.99%. The AC50 under setting [1] was 4.11 µM [falling, single point].

`CCN1CCn2c1nc(N1CCCCC1)nc2=O`: the AC50 under setting [2] is 0.103 µM [falling, full curve, poor fit].

In the case of `Nc1ccc(C(=O)NCC2(c3ccccc3)CCCC2)cc1`, the cell number change worked out at 19.2%. Under setting [2], the AC50 was 1.16 µM [rising, single point]. In addition, the AC50 under setting [1] is 0.116 µM [rising, full curve].

Turning to `CCCCn1c(N)c(N(C(=O)CSc2nnnn2-c2ccccc2)C2CCCC2)c(=O)[nH]c1=O`, the cell number change was 5.18%. Further, the half-maximal activity concentration (AC50) under setting [1] is 2.06 µM [rising, single point].

As for `CCOC(=O)c1[nH]ncc1CN1CCCC(C(=O)c2cccc(OC(C)C)c2)C1` (configuration not stated), the cell number change worked out at 28.6%.

Take `CCN(CC)C(=S)NC(=O)c1ccc(F)cc1`: the cell number change is 0.656%. For the same compound, the half-maximal activity concentration (AC50) under setting [1] is 6.51 µM [rising, single point].

Take `CCn1c(=O)c(=O)[nH]c2cc(C(=O)NC3CCCC3)ccc21`: the cell number change was -13.1%. The AC50 under setting [1] is 3.66 µM [falling, partial curve].
